# Assay results published in PMC8384837.
# Changes are numbered by the printed parent chain. This is one part of the list.
# How the values were obtained:
# Conditions in all cases: yeast three-hybrid, YBZ-1, SC-Leu-His + 0.5 mM 3-AT, 4 days
# [1] = molecular target: T1, PUM1 PUF domain R5-AAR C1007A + R1008A + Q1011R (Homo sapiens) (UniProt Q14671)
# T1 sequence: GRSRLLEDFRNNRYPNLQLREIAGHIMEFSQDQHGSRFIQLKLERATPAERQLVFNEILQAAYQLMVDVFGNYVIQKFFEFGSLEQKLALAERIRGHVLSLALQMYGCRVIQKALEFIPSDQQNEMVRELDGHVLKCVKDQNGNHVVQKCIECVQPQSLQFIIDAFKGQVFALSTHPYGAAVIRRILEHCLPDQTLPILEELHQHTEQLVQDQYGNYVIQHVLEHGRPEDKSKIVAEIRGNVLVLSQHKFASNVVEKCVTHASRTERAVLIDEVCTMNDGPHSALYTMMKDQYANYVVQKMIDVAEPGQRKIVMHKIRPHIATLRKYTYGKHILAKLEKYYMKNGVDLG
# [2] = molecular target: T2, PUM1 PUF domain R5-FHK C1007F + R1008H + Q1011K (Homo sapiens) (UniProt Q14671)
# T2 sequence: T1 sequence with A180F, A181H, R184K
# [3] = molecular target: T3, PUM1 PUF domain R5-KQG C1007K + R1008Q + Q1011G (Homo sapiens) (UniProt Q14671)
# T3 sequence: T1 sequence with A180K, A181Q, R184G
# [4] = molecular target: T4, PUM1 PUF domain R5-KRA C1007K + Q1011A (Homo sapiens) (UniProt Q14671)
# T4 sequence: T1 sequence with A180K, A181R, R184A
# [5] = molecular target: T5, PUM1 PUF domain R5-KSR C1007K + R1008S + Q1011R (Homo sapiens) (UniProt Q14671)
# T5 sequence: T1 sequence with A180K, A181S
# [6] = molecular target: T6, PUM1 PUF domain R5-LNS C1007L + R1008N + Q1011S (Homo sapiens) (UniProt Q14671)
# T6 sequence: T1 sequence with A180L, A181N, R184S
# [7] = molecular target: T7, PUM1 PUF domain R5-MKR C1007M + R1008K + Q1011R (Homo sapiens) (UniProt Q14671)
# T7 sequence: T1 sequence with A180M, A181K
# [8] = molecular target: T8, PUM1 PUF domain R5-NAV C1007N + R1008A + Q1011V (Homo sapiens) (UniProt Q14671)
# T8 sequence: T1 sequence with A180N, R184V
# [9] = molecular target: T9, PUM1 PUF domain R5-QQR C1007Q + R1008Q + Q1011R (Homo sapiens) (UniProt Q14671)
# T9 sequence: T1 sequence with A180Q, A181Q
# [10] = molecular target: T10, PUM1 PUF domain R5-RAS C1007R + R1008A + Q1011S (Homo sapiens) (UniProt Q14671)
# T10 sequence: T1 sequence with A180R, R184S
# [11] = molecular target: T11, PUM1 PUF domain R5-RGP C1007R + R1008G + Q1011P (Homo sapiens) (UniProt Q14671)
# T11 sequence: T1 sequence with A180R, A181G, R184P
# [12] = molecular target: T12, PUM1 PUF domain R5-RGT C1007R + R1008G + Q1011T (Homo sapiens) (UniProt Q14671)
# T12 sequence: T1 sequence with A180R, A181G, R184T
# [13] = molecular target: T13, PUM1 PUF domain R5-RKE C1007R + R1008K + Q1011E (Homo sapiens) (UniProt Q14671)
# T13 sequence: T1 sequence with A180R, A181K, R184E
# [14] = molecular target: T14, PUM1 PUF domain R5-RKT C1007R + R1008K + Q1011T (Homo sapiens) (UniProt Q14671)
# T14 sequence: T1 sequence with A180R, A181K, R184T
# [15] = molecular target: T15, PUM1 PUF domain R5-RMW C1007R + R1008M + Q1011W (Homo sapiens) (UniProt Q14671)
# T15 sequence: T1 sequence with A180R, A181M, R184W
# [16] = molecular target: T16, PUM1 PUF domain R5-RNA C1007R + R1008N + Q1011A (Homo sapiens) (UniProt Q14671)
# T16 sequence: T1 sequence with A180R, A181N, R184A
# [17] = molecular target: T17, PUM1 PUF domain R5-RSS C1007R + R1008S + Q1011S (Homo sapiens) (UniProt Q14671)
# T17 sequence: T1 sequence with A180R, A181S, R184S
# [18] = molecular target: T18, PUM1 PUF domain R5-SLH C1007S + R1008L + Q1011H (Homo sapiens) (UniProt Q14671)
# T18 sequence: T1 sequence with A180S, A181L, R184H
# [19] = molecular target: T19, PUM1 PUF domain R5-SMS C1007S + R1008M + Q1011S (Homo sapiens) (UniProt Q14671)
# T19 sequence: T1 sequence with A180S, A181M, R184S
# [20] = molecular target: T20, PUM1 PUF domain R5-SNN C1007S + R1008N + Q1011N (Homo sapiens) (UniProt Q14671)
# T20 sequence: T1 sequence with A180S, A181N, R184N
sequence,measurement,setting,value
GGCUAGAACUAGUGGAUCCCCCGGCGCCCGGCGGCUCGAGCCCGGGUAAGUGUAAAUAGUCUGCAUGCCGCCGGGCGCCAUGCCUGCAGGUCGACUCUAGAAAACAUG,binding signal (log2 enrichment (interaction score)),[1],-1.2
same,binding signal (log2 enrichment (interaction score)),[2],-1.26
same,binding signal (log2 enrichment (interaction score)),[3],-1.36
same,binding signal (log2 enrichment (interaction score)),[4],-1.58
same,binding signal (log2 enrichment (interaction score)),[5],-1.31
same,binding signal (log2 enrichment (interaction score)),[6],-1.13
same,binding signal (log2 enrichment (interaction score)),[7],-1.21
same,binding signal (log2 enrichment (interaction score)),[8],-1.34
same,binding signal (log2 enrichment (interaction score)),[9],-1.11
same,binding signal (log2 enrichment (interaction score)),[10],-1.11
same,binding signal (log2 enrichment (interaction score)),[11],-1.1
same,binding signal (log2 enrichment (interaction score)),[12],-1.13
same,binding signal (log2 enrichment (interaction score)),[13],-2.22
same,binding signal (log2 enrichment (interaction score)),[14],-1.12
same,binding signal (log2 enrichment (interaction score)),[15],-1.26
same,binding signal (log2 enrichment (interaction score)),[16],-1.35
same,binding signal (log2 enrichment (interaction score)),[17],-1.31
same,binding signal (log2 enrichment (interaction score)),[18],-1.08
same,binding signal (log2 enrichment (interaction score)),[19],-1.07
same,binding signal (log2 enrichment (interaction score)),[20],-1.19

# Already shown: entries from further up.
sequence,measurement,setting,value
GGCUAGAACUAGUGGAUCCCCCGGCGCCCGGCGGCUCGAGCCCGGGUAAGUGUAAAUAGUCUGCAUGCCGCCGGGCGCCAUGCCUGCAGGUCGACUCUAGAAAACAUG,binding signal (log2 enrichment (interaction score)),[14],-1.12
same,binding signal (log2 enrichment (interaction score)),[15],-1.26
